Primary screen of a compound library

Source: ChEMBL document CHEMBL3988442, “University of Dundee, Small-Polar-MMV Screening Library” (2021).

Each number is a percent effect as filed.
How 0% and 100% were set is not recorded. Most values in the screen are low, and negative values occur.
This is an unselected part of the compounds tested.

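Viability assay of Plasmodium falciparum sporozoites; the read-out is not stated. The concentration is filed as 10 mM, unlikely as a test dose, so the dose is not known. Direction is inferred from retests: higher values go with lower viability. Strong results were mostly tested again. Size under these conditions: about 34,000 compounds, about 280 of them at 50% or above in at least one test.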

structure,percent effect
CN1CCN(C(=O)CCn2c(C(F)(F)F)cc3cccnc32)CC1,22.94
COCc1nc(CNC2CCSC2)no1 (centres unmarked),-0.1103
O=C(Nc1ccccc1)N1CCC2(CC(=O)N(c3ccsc3)C2)C1 (centres unmarked),-5.054
CNS(=O)(=O)c1cccc(CNc2nccc(C(F)(F)F)n2)c1,19.36
Cc1noc(Cl)c1CCC(=O)N1CCN(c2ccccc2)CC1,0.6284
O=C(O)C(F)(F)F.[H][C@]12CCC[C@@]1(COCc1ccncc1)CN(C(=O)c1ncccn1)C2,-1.229
Cc1ccnc(C2CCN(C(=O)c3cnn(C)c3)C2)n1 (centres unmarked),0.7851
CC(C)Nc1cccc(CC2CCN(S(C)(=O)=O)CC2)n1,1.465
[H][C@@]12C[C@@H](O)CN1C[C@@H](Cc1ccccc1)N(Cc1cnn(C=C)c1C)C2,2.199
Cc1cccnc1CN1CCC(c2nnc(Cn3cccn3)n2C)CC1,3.807
Cc1nc(NCC2CC2)nc2c1COCC21CCN(C(=O)C(C)(C)C)C1 (centres unmarked),0.4296
Cc1nc(CNC(C)c2ccc(OCC(=O)NC3CC3)cc2)cs1 (centres unmarked),-10.98
CC1CCN(C(=O)C2(Cc3cc(C4CCOC4)no3)CCNCC2)CC1.Cl (centres unmarked),14.86
Cc1nc2c(c(C)c1CC(=O)NCc1cccc(C#N)c1)c(=O)[nH]n2C,-5.087
Cc1nn(C)c(C)c1C1COCCN1c1ncnc2c(C)cccc12 (centres unmarked),-18.38
CO[C@H]1CO[C@@]2(CCCN(S(=O)(=O)c3ccccc3)C2)C1,-9.156
CNC(=O)C1(c2cnccn2)CCCN1C(=O)c1ccccc1OC (centres unmarked),10.37
CCc1nccn1C1CCCN(C(=O)c2ccc3[nH]c(=O)[nH]c3c2)C1 (centres unmarked),3.107
CCn1cc(C(=O)NCc2csc(Br)c2)cn1,-15.75
COc1ccccc1C1(O)CCCN(C(=O)c2csc(C(C)=O)c2)C1 (centres unmarked),-6.01
CC(C)N1CCOC(c2ccnc(N(C)C)n2)C1 (centres unmarked),-6.658
CN1N=C(C(=O)N2CCCC(n3ccnc3)C2)CCC1=O (centres unmarked),15.97
COCCNc1nc(C)nc2c1CCN(C[C@H]1CC[C@@H](N)CC1)CC2,-4.297
O=C(O)C(F)(F)F.[H][C@@]12CCN(CC3CCOCC3)[C@@]1([H])CCN2C(=O)c1cccc(Cl)c1,-16.72
[H][C@]12CC[C@@]3(N=C(CC)N(CC(C)C)C3=O)[C@@]1([H])CN(S(=O)(=O)N(C)C)C2,-8.156
CCOC(=O)N1CCN(C(=O)c2cc(-c3ccccc3F)on2)CC1,5.857
[H][C@@]12C[C@H](C(=O)NCc3ccco3)CN(C(=O)c3ccco3)[C@]1([H])CCO2,-4.654
CCS(=O)(=O)N1CCc2ccc(NC(=O)Nc3cccc(SC)c3)cc21,-26.48
CCN(Cc1cccc(F)c1)S(=O)(=O)N1CCOCC1,-4.366
CC(Cn1ccnc1)NC(=O)NCCc1ccc(Cl)s1 (centres unmarked),5.986
CN(Cc1ccccc1F)C(=O)COC(=O)c1cc(Cl)c[nH]1,-13.28
CC(C)n1ccc(C(=O)N2CCCC(n3cncn3)C2)n1 (centres unmarked),-0.3566
COc1ccccc1-n1nc(-c2ccco2)n(CC(=O)NC(C)C)c1=O,-5.692
O=C(CN1CCOC(c2ccccc2C(F)(F)F)C1)NC1CC1 (centres unmarked),-10.29
O=C(NCc1cccnc1-n1cncn1)c1ccc2c(c1)CCO2,11.4
CC(C)[C@H](NC(=O)NC1CCS(=O)(=O)C1)C(=O)NCc1ccccc1Cl (some centres unmarked),-18.64
CSCCCN1CCn2nc(CNC(=O)N(C)C)cc2C1,-6.579
O=C1CCC2(CCOC2)CN1Cc1nncn1CCc1ccccc1 (centres unmarked),-3.028
CNC(=O)c1cccc(CC2COCCN(Cc3ccsc3)C2)n1 (centres unmarked),1.561
O=C(O)C(F)(F)F.[H][C@@]12C[C@@H](c3nc(C)no3)O[C@]1([H])CN(C(=O)C1CCN(C)CC1)C2,10.27
O=C1CCCN1Cc1nnc(SCc2ccc3c(c2)CCC3)o1,-12.99
NC(=O)C(CNC(=O)COCC(F)(F)F)Cc1ccc(F)cc1 (centres unmarked),-13.64
CC(C)N1CCOCC2(CN(Cc3ccccn3)CCO2)C1.O=C(O)C(F)(F)F.O=C(O)C(F)(F)F.O=C(O)C(F)(F)F (centres unmarked),1.676
Cc1nc(C2CCCN2Cc2nnc(Cc3ccccc3)o2)no1 (centres unmarked),7.804
CC(N(C)Cc1nc2c(cnn2C)c(=O)[nH]1)C(C)(C)C (centres unmarked),3.425
Cc1noc(C)c1CCc1nc(C2CCOC2)no1 (centres unmarked),-4.297
CN1CCN(Cc2cccnc2)C(=O)C12CCN(S(C)(=O)=O)CC2,9.019
Cc1ccc(N(C)C2CCN(C(=O)c3ccsc3)CC2)nn1,-0.9812
Cc1c(C2CCCN(C(=O)c3ccncc3)C2)n2c(nc1=O)CCC2.Cl (centres unmarked),17.8
CN(C1CCN(c2ccccn2)CC1)S(=O)(=O)c1cccc(F)c1,-11.89
CCc1ccc(CN2CCCC(CO)(CCOC)C2)cc1 (centres unmarked),15.69
O=C(O)C(F)(F)F.[H][C@@]12COC[C@]1(CNC(=O)c1ccsc1)CN(Cc1cccs1)C2,-10.95

For reference, 3 entries once more:

structure,percent effect
Cc1cccnc1CN1CCC(c2nnc(Cn3cccn3)n2C)CC1,3.807
O=C(O)C(F)(F)F.[H][C@@]12C[C@@H](c3nc(C)no3)O[C@]1([H])CN(C(=O)C1CCN(C)CC1)C2,10.27
CO[C@H]1CO[C@@]2(CCCN(S(=O)(=O)c3ccccc3)C2)C1,-9.156